Test results: paper PMC6521049
These are yes or no findings as the source states them, for the method shown. Binding seen in cells or lysates may run through a third protein. Some entries that bind do so weakly or less than the wild type. Each block holds one substance with its values, some of them ahead of it.

By UniProt entry, the sequences of proteins in these tests, tags left out.
UniProt P08670: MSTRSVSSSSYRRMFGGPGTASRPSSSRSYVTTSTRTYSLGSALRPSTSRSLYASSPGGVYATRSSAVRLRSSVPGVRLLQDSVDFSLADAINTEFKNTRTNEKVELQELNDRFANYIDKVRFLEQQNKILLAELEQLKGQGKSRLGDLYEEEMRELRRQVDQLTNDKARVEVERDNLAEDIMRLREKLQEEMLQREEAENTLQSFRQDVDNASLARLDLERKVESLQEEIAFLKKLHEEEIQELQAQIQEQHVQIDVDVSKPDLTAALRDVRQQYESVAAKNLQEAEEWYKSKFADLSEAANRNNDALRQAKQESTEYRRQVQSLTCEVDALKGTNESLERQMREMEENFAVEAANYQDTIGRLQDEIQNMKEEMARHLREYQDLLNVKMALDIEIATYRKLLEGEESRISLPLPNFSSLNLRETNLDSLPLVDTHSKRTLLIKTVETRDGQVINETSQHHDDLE
UniProt P49840: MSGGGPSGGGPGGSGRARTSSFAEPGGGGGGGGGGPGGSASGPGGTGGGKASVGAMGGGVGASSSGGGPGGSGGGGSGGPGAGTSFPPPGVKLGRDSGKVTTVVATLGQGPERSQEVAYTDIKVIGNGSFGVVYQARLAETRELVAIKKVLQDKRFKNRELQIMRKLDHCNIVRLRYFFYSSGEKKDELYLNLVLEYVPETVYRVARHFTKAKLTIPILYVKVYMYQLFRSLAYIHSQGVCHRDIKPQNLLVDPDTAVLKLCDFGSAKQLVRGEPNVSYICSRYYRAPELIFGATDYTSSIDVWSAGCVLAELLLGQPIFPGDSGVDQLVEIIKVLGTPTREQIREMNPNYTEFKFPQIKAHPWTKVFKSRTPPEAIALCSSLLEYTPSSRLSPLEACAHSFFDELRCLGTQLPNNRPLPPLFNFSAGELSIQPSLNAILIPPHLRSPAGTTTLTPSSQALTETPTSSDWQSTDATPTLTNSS
UniProt P49841: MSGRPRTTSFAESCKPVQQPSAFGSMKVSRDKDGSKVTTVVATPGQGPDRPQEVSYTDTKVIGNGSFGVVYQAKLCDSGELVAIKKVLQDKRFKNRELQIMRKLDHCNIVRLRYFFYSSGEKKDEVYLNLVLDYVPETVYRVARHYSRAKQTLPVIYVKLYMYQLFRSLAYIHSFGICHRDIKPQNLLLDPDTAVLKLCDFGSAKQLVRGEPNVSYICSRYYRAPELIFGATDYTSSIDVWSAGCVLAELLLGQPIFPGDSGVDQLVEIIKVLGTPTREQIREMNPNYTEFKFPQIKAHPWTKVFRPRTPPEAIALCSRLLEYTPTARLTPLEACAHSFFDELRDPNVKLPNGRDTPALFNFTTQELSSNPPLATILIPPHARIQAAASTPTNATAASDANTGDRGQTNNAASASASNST

Key:
[1] = biological target: vimentin (human (endogenous in U251)) (UniProt P08670); assay: co-sedimentation; vimentin solubilized and precipitated by a series of buffer exchanges in two cycles of dialysis, followed by Western blotting for GSK-3
[2] = biological target: yellow-fluorescent protein (YFP)-vimentin fusion protein (human) (UniProt P08670); assay: FRET or BRET; CFP and YFP fusion proteins transiently expressed in live U251 cells; confocal microscopy (Zeiss LSM510)
[3] = biological target: glutathione-s-transferase (GST)-GSK-3α fusion protein (UniProt P49840); assay: pull-down; GST-GSK-3 (α or β) transiently expressed in U251 cells; 500 μg TX100 protein extract incubated with glutathione agarose beads at 4 °C for 1 h, washed with TX100 lysis buffer; Western blot for vimentin
[4] = biological target: glutathione-s-transferase (GST)-GSK-3β fusion protein (UniProt P49841); assay: as above

binding [1]: binds
Substance: GSK-3β (from UniProt P49841 1-420) (enzyme)

binding [2]: binds
Substance: cyan-fluorescent protein (CFP)-GSK-3β fusion protein (from UniProt P49841 1-420) (enzyme)

binding [1]: binds
Substance: GSK-3α (from UniProt P49840 1-483) (enzyme)

binding [3]: binds
binding [4]: binds
Substance: vimentin (from UniProt P08670 1-466)
